Chains of the proteins cited; added tags and fusions are not shown. Lines headed by an entry give the natural chain unless they say otherwise; changes in a name come on top.
UniProt Q9UH17: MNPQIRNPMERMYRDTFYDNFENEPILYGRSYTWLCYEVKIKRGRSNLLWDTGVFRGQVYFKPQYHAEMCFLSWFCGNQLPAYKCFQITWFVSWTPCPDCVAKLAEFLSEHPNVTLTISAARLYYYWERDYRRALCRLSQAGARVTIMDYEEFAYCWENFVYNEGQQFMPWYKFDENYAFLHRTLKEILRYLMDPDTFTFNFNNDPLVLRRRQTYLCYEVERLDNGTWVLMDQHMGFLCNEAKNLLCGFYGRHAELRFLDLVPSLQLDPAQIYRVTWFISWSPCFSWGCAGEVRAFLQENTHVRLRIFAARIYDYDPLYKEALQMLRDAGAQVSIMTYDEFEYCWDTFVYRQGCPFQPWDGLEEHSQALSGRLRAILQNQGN
UniProt P31941: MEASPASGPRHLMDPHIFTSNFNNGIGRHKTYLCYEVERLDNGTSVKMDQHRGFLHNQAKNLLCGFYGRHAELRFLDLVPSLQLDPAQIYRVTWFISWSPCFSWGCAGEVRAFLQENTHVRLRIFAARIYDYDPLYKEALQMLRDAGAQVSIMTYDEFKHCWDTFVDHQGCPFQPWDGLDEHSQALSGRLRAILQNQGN

In patent publication US20240309457:

Experiments:
APOBEC3B (Homo sapiens) = APOBEC3B (Homo sapiens) (UniProt Q9UH17); experiment: enzyme reaction in vitro; settings: UDG/NaOH cleavage, 37 C 2 h, protein in an extract, protein details: endogenous, MDA-MB-453 cell extract, label: 5' IRD800
APOBEC3A (Homo sapiens) = APOBEC3A (Homo sapiens) (UniProt P31941); experiment: enzyme reaction in vitro; settings: active in extracts with cellular RNA present; A3A deletion gave loss comparable to A3B deletion; double loss required to eliminate activity; protein in an extract; protein details: endogenous, MDA-MB-453 cell extract; label: 5' IRD800; single-stranded DNA

| Sequence | activity on this sequence (APOBEC3B (Homo sapiens); major deaminase activity in WT/KO extracts, RNase A treated, single-stranded …) | activity on this sequence (APOBEC3B (Homo sapiens); major activity after RNase A, inhibited by cellular RNA without RNase but still active, single-stranded DNA) | activity on this sequence (APOBEC3A (Homo sapiens)) |
| --- | --- | --- | --- |
| ATTATTATTATTATTATTATTTCATTTATTTATTTATTTA [linear deaminase probe] | active | – | – |
| ATTATTATTATTGCAAGCTGTTCAGCTTGCTGAATTTATT [hairpin deaminase probe] | – | active | active |
